Measurements from US20020016384A1, “Hydrolysis-stable and polymerizable acrylophosphonic acid” (Ivoclar Vivadent AG., priority 2000, published 2002).

Experiment: Radical homopolymerization of monomers in water
Settings: 20.0 mmol monomer in 10 ml water, 2.0 mol-% 2,2'-azobis(isobutyric acid amidine)dihydrochloride, argon, 65° C., 2 hours

With `C=C(COCCP(=O)(O)O)C(=O)N(CC)CC` [Monomer 3, 2-[4-(dihydroxyphosphoryl)-2-oxabutyl]-acrylic acid diethylamide] the “monomer conversion rate, gravimetrically established” value was 23.1%.
In the case of `C=C(C#N)COCCP(=O)(O)O` [Monomer 5, 2-[4-(dihydroxyphosphoryl)-2-oxabutyl]-acrylonitrile], the “monomer conversion rate, gravimetrically established” value is reported as 13.7%.
